PubChem BioAssay AID1508597 | Cure First – 2020

Aim: 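Knock-downs altering ovarian cancer cell survival with or without PARP inhibitor rucaparib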 (primary screen)
System: human ovarian carcinoma lines grown from tumours: OCI-P5x (papillary serous) and OCI-C5x (clear cell)
Reagent: siRNA pool against human genes, 1.25 pmol siRNA per well
Time to read-out: 72 h or 96 h, depending on the cell culture
Treatment: rucaparib 20 µM (about IC30) or vehicle, present until read-out
Detection: 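ATP luminescence measured at 72 or 96 h according to the culture, then normalised and expressed as percent viability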
Reading the numbers: viability, normalised: higher = more viable cells remaining
Rule for the call: 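Active when normalised viability falls below 80 percent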
Calls: active = viability under 80%; inactive = viability 80% or more
The deposit covers about 2,100 reagents; below is an unselected part. 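Calls flag viability under 80% in either arm, not effects specific to rucaparib; the reference for percent is not stated.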 Some reagents were tested in more than one well and are listed for each. Not given: the 100% reference.

gene symbol	rucaparib or vehicle	cell line	technical replicate	viability, normalised (%)	Call
CSNK1D (casein kinase 1 delta)	Rucaparib	OCI-C5x (clear cell)	1	45.4	active
CSNK1D (casein kinase 1 delta)	Rucaparib	OCI-C5x (clear cell)	1	103	inactive
CSNK1D (casein kinase 1 delta)	Rucaparib	OCI-C5x (clear cell)	2	87.9	inactive
CSNK1D (casein kinase 1 delta)	Rucaparib	OCI-C5x (clear cell)	2	48	active
CSNK1D (casein kinase 1 delta)	Rucaparib	OCI-C5x (clear cell)	3	38.6	active
CSNK1D (casein kinase 1 delta)	Rucaparib	OCI-C5x (clear cell)	3	88.6	inactive
CSNK1D (casein kinase 1 delta)	Rucaparib	OCI-P5x (serous)	1	128	inactive
CSNK1D (casein kinase 1 delta)	Rucaparib	OCI-P5x (serous)	1	49.7	active
CSNK1D (casein kinase 1 delta)	Rucaparib	OCI-P5x (serous)	2	49	active
CSNK1D (casein kinase 1 delta)	Rucaparib	OCI-P5x (serous)	2	136	inactive
CSNK1D (casein kinase 1 delta)	Rucaparib	OCI-P5x (serous)	3	42.8	active
CSNK1D (casein kinase 1 delta)	Rucaparib	OCI-P5x (serous)	3	137	inactive
CSNK1D (casein kinase 1 delta)	Vehicle	OCI-C5x (clear cell)	1	96	inactive
CSNK1D (casein kinase 1 delta)	Vehicle	OCI-C5x (clear cell)	1	117	inactive
CSNK1D (casein kinase 1 delta)	Vehicle	OCI-C5x (clear cell)	2	71.3	active
CSNK1D (casein kinase 1 delta)	Vehicle	OCI-C5x (clear cell)	2	51.4	active
CSNK1D (casein kinase 1 delta)	Vehicle	OCI-C5x (clear cell)	3	49.5	active
CSNK1D (casein kinase 1 delta)	Vehicle	OCI-C5x (clear cell)	3	72.2	active
CSNK1D (casein kinase 1 delta)	Vehicle	OCI-P5x (serous)	1	105	inactive
CSNK1D (casein kinase 1 delta)	Vehicle	OCI-P5x (serous)	1	58.3	active
CSNK1D (casein kinase 1 delta)	Vehicle	OCI-P5x (serous)	2	91.6	inactive
CSNK1D (casein kinase 1 delta)	Vehicle	OCI-P5x (serous)	2	52.8	active
CSNK1D (casein kinase 1 delta)	Vehicle	OCI-P5x (serous)	3	103	inactive
CSNK1D (casein kinase 1 delta)	Vehicle	OCI-P5x (serous)	3	58.6	active
HERC2 (HECT and RLD domain containing E3 ubiquitin protein ligase 2)	Rucaparib	OCI-C5x (clear cell)	1	62.4	active
HERC2 (HECT and RLD domain containing E3 ubiquitin protein ligase 2)	Rucaparib	OCI-C5x (clear cell)	1	56.6	active
HERC2 (HECT and RLD domain containing E3 ubiquitin protein ligase 2)	Rucaparib	OCI-C5x (clear cell)	2	62.4	active
HERC2 (HECT and RLD domain containing E3 ubiquitin protein ligase 2)	Rucaparib	OCI-C5x (clear cell)	2	91.6	inactive
HERC2 (HECT and RLD domain containing E3 ubiquitin protein ligase 2)	Rucaparib	OCI-C5x (clear cell)	3	44.8	active
HERC2 (HECT and RLD domain containing E3 ubiquitin protein ligase 2)	Rucaparib	OCI-C5x (clear cell)	3	87.3	inactive
HERC2 (HECT and RLD domain containing E3 ubiquitin protein ligase 2)	Rucaparib	OCI-P5x (serous)	1	161	inactive
HERC2 (HECT and RLD domain containing E3 ubiquitin protein ligase 2)	Rucaparib	OCI-P5x (serous)	1	76.7	active
HERC2 (HECT and RLD domain containing E3 ubiquitin protein ligase 2)	Rucaparib	OCI-P5x (serous)	2	172	inactive
HERC2 (HECT and RLD domain containing E3 ubiquitin protein ligase 2)	Rucaparib	OCI-P5x (serous)	2	65	active
HERC2 (HECT and RLD domain containing E3 ubiquitin protein ligase 2)	Rucaparib	OCI-P5x (serous)	3	125	inactive
HERC2 (HECT and RLD domain containing E3 ubiquitin protein ligase 2)	Rucaparib	OCI-P5x (serous)	3	73.3	active
HERC2 (HECT and RLD domain containing E3 ubiquitin protein ligase 2)	Vehicle	OCI-C5x (clear cell)	1	99.5	inactive
HERC2 (HECT and RLD domain containing E3 ubiquitin protein ligase 2)	Vehicle	OCI-C5x (clear cell)	1	58.6	active
HERC2 (HECT and RLD domain containing E3 ubiquitin protein ligase 2)	Vehicle	OCI-C5x (clear cell)	2	90.9	inactive
HERC2 (HECT and RLD domain containing E3 ubiquitin protein ligase 2)	Vehicle	OCI-C5x (clear cell)	2	42	active
HERC2 (HECT and RLD domain containing E3 ubiquitin protein ligase 2)	Vehicle	OCI-C5x (clear cell)	3	52.7	active
HERC2 (HECT and RLD domain containing E3 ubiquitin protein ligase 2)	Vehicle	OCI-C5x (clear cell)	3	92.4	inactive
HERC2 (HECT and RLD domain containing E3 ubiquitin protein ligase 2)	Vehicle	OCI-P5x (serous)	1	66.1	active
HERC2 (HECT and RLD domain containing E3 ubiquitin protein ligase 2)	Vehicle	OCI-P5x (serous)	1	136	inactive
HERC2 (HECT and RLD domain containing E3 ubiquitin protein ligase 2)	Vehicle	OCI-P5x (serous)	2	131	inactive
HERC2 (HECT and RLD domain containing E3 ubiquitin protein ligase 2)	Vehicle	OCI-P5x (serous)	2	63.7	active
HERC2 (HECT and RLD domain containing E3 ubiquitin protein ligase 2)	Vehicle	OCI-P5x (serous)	3	147	inactive
HERC2 (HECT and RLD domain containing E3 ubiquitin protein ligase 2)	Vehicle	OCI-P5x (serous)	3	59	active
PLCZ1 (phospholipase C zeta 1)	Rucaparib	OCI-C5x (clear cell)	1	72.7	active
PLCZ1 (phospholipase C zeta 1)	Rucaparib	OCI-C5x (clear cell)	2	59.2	active
PLCZ1 (phospholipase C zeta 1)	Rucaparib	OCI-C5x (clear cell)	3	47.1	active
PLCZ1 (phospholipase C zeta 1)	Rucaparib	OCI-P5x (serous)	1	58.6	active
PLCZ1 (phospholipase C zeta 1)	Rucaparib	OCI-P5x (serous)	2	57.3	active
PLCZ1 (phospholipase C zeta 1)	Rucaparib	OCI-P5x (serous)	3	42.6	active
PLCZ1 (phospholipase C zeta 1)	Vehicle	OCI-C5x (clear cell)	1	15.1	active
PLCZ1 (phospholipase C zeta 1)	Vehicle	OCI-C5x (clear cell)	2	60.4	active
PLCZ1 (phospholipase C zeta 1)	Vehicle	OCI-C5x (clear cell)	3	43.9	active
PLCZ1 (phospholipase C zeta 1)	Vehicle	OCI-P5x (serous)	1	65.8	active
PLCZ1 (phospholipase C zeta 1)	Vehicle	OCI-P5x (serous)	2	73.9	active
PLCZ1 (phospholipase C zeta 1)	Vehicle	OCI-P5x (serous)	3	67.7	active

5 consecutive records from above, quoted:
gene symbol	rucaparib or vehicle	cell line	technical replicate	viability, normalised (%)	Call
HERC2 (HECT and RLD domain containing E3 ubiquitin protein ligase 2)	Vehicle	OCI-P5x (serous)	3	147	inactive
HERC2 (HECT and RLD domain containing E3 ubiquitin protein ligase 2)	Vehicle	OCI-P5x (serous)	3	59	active
PLCZ1 (phospholipase C zeta 1)	Rucaparib	OCI-C5x (clear cell)	1	72.7	active
PLCZ1 (phospholipase C zeta 1)	Rucaparib	OCI-C5x (clear cell)	2	59.2	active
PLCZ1 (phospholipase C zeta 1)	Rucaparib	OCI-C5x (clear cell)	3	47.1	active
